This note sets out measurements from PMC11790958, “Molecular mechanism of condensin I activation by KIF4A” (The EMBO Journal, 2024).

Protein sequences, listed by entry. Tags and fused reporters are not part of them. Lines headed by an entry give the natural chain unless they say otherwise; changes in a name come on top.
UniProt P38989: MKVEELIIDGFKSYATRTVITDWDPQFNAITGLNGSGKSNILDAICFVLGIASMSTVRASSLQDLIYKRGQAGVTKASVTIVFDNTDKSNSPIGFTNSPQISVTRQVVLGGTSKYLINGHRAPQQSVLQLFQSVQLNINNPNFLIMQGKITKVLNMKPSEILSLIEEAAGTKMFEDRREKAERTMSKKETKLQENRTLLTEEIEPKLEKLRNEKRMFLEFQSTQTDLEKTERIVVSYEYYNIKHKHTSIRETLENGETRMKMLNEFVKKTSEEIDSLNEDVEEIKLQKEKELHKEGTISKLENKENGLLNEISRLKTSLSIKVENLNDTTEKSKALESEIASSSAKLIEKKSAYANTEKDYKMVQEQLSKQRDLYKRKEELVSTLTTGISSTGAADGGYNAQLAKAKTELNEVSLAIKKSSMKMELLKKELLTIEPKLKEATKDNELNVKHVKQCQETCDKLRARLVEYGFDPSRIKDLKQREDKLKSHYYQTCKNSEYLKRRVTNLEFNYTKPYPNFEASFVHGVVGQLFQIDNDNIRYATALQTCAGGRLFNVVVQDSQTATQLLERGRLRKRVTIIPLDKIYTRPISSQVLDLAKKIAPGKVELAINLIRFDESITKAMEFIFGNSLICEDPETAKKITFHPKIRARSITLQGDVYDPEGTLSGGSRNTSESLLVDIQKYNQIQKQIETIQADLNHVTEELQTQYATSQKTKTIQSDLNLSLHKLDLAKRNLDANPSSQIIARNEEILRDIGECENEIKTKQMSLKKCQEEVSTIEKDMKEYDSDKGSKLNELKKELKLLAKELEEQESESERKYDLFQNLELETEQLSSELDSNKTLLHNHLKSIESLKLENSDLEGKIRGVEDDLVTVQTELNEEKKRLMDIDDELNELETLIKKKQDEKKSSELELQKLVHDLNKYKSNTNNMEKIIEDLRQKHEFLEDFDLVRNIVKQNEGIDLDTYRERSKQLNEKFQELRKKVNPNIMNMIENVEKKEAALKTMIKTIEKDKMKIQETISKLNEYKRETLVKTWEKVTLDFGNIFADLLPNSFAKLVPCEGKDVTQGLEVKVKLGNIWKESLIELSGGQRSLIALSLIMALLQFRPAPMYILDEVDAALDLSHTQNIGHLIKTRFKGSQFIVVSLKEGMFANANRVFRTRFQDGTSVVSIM

These are yes or no findings as the source states them, for the method shown. Some entries that bind do so weakly or less than the wild type.

Holding throughout (experiment): fluorescence polarisation; 100 nM 5-FAM labelled peptide, protein or complex titrated; 20 mM HEPES pH 8, 150 mM KCl, 2.5 mM MgCl, 5% glycerol, 1 mM DTT; room temperature, 15 min; both purified
For orientation: In fluorescence polarisation assays a small probe gives low polarisation when free and higher when bound to something large.

Experiment [1] has as its target T1, 5-FAM NCAPD2-C(1376-1398) peptide (human).
T1 sequence (peptide, 5-FAM on the N-terminus): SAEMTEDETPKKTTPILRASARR

Experiment [2] addresses T2, 5-FAM-KIF4A WT(1206-1228) peptide (human).
T2 sequence (peptide, 5-FAM on the N-terminus): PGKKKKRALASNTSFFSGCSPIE

For experiment [3], the target named is T3, 5-FAM Lrs4(317-337) peptide (S. cerevisiae).
T3 sequence (peptide, 5-FAM on the N-terminus): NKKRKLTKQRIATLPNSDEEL

The target of experiment [4] is T4, 5-FAM Sgo1(503-523) peptide (S. cerevisiae).
T4 sequence (peptide, 5-FAM (label named; its end is not printed for this peptide)): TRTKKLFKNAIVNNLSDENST

For “human condensin I tetramer lacking NCAPG (from UniProt O95347 1-1197; Q9NTJ3 1-1288; Q15003 1-741; Q15021 1-1401) (complex)”, the binding entry in experiment [1] and in experiment [2] was “binds weakly” each time.

In the case of “yeast condensin tetramer lacking Ycg1 (from UniProt P38989 1-1170; Q12267 1-1418; P38170 1-754; Q06156 1-1176) (complex)”, the binding result in experiment [3] and in experiment [4] was “no binding” throughout.
